At least one compound was matched to its structure with a doubt left.
Columns and labels:
LXRα-64 mRNA = test: Regulation of LXRα-64 mRNA expression in differentiated THP-1 cells (real-time RT-PCR); format: cell-based, human; conditions: THP-1 cells differentiated with 150 nM phorbol ester for 3 days; 10 μM T0901317, 10 μM GW 3965, 10 μM Ciglitazone or 1 μM 9RA; vs vehicle; FIG. 8A
LXRα-42 mRNA = test: Regulation of LXRα-42 mRNA expression in differentiated THP-1 cells (real-time RT-PCR); format: cell-based, human; conditions: THP-1 cells differentiated with 150 nM phorbol ester for 3 days; 10 μM T0901317, 10 μM GW 3965, 10 μM Ciglitazone or 1 μM 9RA; vs vehicle; FIG. 8B

SMILES: CC1(COc2ccc(CC3SC(=O)NC3=O)cc2)CCCCC1 (centres unmarked) [Ciglitazone]
- expression of LXRα-64 mRNA (LXRα-64 mRNA): increased
- expression of LXRα-42 mRNA (LXRα-42 mRNA): increased

Source: US7341850B2, “Human LXRα variants” (Wyeth, priority 2003, dated 2008)
